US20020010207A1, “Tropane analogs and methods for inhibition of monoamine transport” (priority 2000, published 2002)

By UniProt entry, the sequences of proteins in these tests, tags left out.
UniProt Q9GJT6, whole entry: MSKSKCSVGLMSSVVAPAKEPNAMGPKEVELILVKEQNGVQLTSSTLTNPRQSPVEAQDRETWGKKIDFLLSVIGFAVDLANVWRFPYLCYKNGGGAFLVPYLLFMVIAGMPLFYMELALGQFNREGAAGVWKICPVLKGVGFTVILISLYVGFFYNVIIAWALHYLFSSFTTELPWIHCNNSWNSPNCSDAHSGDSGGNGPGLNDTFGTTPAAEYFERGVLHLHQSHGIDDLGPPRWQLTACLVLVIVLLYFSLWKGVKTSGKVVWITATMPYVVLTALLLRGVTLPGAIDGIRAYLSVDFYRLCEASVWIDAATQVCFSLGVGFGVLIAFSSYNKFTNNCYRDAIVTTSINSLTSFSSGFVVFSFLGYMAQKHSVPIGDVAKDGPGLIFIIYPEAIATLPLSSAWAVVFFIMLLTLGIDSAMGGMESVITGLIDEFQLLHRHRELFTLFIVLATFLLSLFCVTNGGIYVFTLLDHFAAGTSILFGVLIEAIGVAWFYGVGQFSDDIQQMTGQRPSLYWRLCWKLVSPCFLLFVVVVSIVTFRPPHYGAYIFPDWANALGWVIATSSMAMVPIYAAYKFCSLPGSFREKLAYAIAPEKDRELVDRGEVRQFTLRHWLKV

Biological target: dopamine transporter (DAT) (Macaca fascicularis, UniProt Q9GJT6)
Experiment: Dopamine transporter assay: inhibition of 3H-WIN35,428 binding, caudate-putamen membranes
Set-up: species or system cynomolgus monkey (Macaca fascicularis)
Details: Table 1; ratio of SERT IC50 to DAT IC50; tested form: HCl

Question: With COC(=O)[C@@H]1[C@H]2[C@H](O)C[C@@H](C[C@H]1c1ccc(Cl)c(Cl)c1)N2C (relative stereo) as the molecule, how does the Selectivity DAT V. SERT read?
Answer: > 500 and 1450

A number of entries come with more than one value. They are shown here; other results are not. There may be further records. The records of an entry differ for a reason that is not stated; some may be repeats, others may stem from another dose, organism or construct than stated.
